Binding data for one molecule are collected here from paper PMC8840131.

No constants are given. Whether binding was seen depends on the method and setting. Binding can be weak; no strength is given.

This test deals with Platycodon grandiflorus FLOWERING LOCUS T (PlgFT) (Platycodon grandiflorus). Put plainly: two-hybrid; Matchmaker GAL4 Two-hybrid System 3, yeast AH109; PlgFT as bait (pGBKT7), AtFD as prey (pGADT7); growth on SD medium without Leu, Trp and His; empty vectors as negative controls.

B1: Arabidopsis FLOWERING LOCUS D (AtFD) (protein, UniProt Q84JK2 1-285)
chain: MLSSAKHQRNHRLSATNKNQTLTKVSSISSSSPSSSSSSSSTSSSSPLPSQDSQAQKRSLVTMEEVWNDINLASIHHLNRHSPHPQHNHEPRFRGQNHHNQNPNSIFQDFLKGSLNQEPAPTSQTTGSAPNGDSTTVTVLYSSPFPPPATVLSLNSGAGFEFLDNQDPLVTSNSNLHTHHHLSNAHAFNTSFEALVPSSSFGKKRGQDSNEGSGNRRHKRMIKNRESAARSRARKQAYTNELELEVAHLQAENARLKRQQDQLKMAAAIQQPKKNTLQRSSTAPF
Consider B1, for which the binding result is “binds”.
